# No dose or concentration is given here for some results.
# Tested on: subjects with EDS due to OSA
# Experiment: Actigraphy and sleep diary, OSA study
# Type: in vivo, human
# Conditions: end of treatment period
structure (smiles),measurement,setting,value
"NC(=O)OC[C@H](N)Cc1ccccc1 [Solriamfetol, (R)-2-amino-3-phenylpropyl carbamate]","total sleep time, reduction from baseline (mean change)",,16.29 min
same,"Sleep Onset Latency for 24-hours, change from baseline, mean",mITT,-6.44 min
same,"Sleep Onset Latency for 24-hours, change from baseline, mean difference (JZP-110 − Placebo)",mITT,0.50 min
same,"Sleep Onset Latency for 24-hours, change from baseline, median",mITT,-4.75 min
same,"Sleep Onset Latency for 24-hours, change from baseline, median difference (JZP-110 − Placebo)",mITT,−1.50 min
same,"Sleep Period (Time in Bed), change from baseline, mean",mITT,-13.82 min
same,"Sleep Period (Time in Bed), change from baseline, mean difference (JZP-110 − Placebo)",mITT,−29.80 min
same,"Sleep Period (Time in Bed), change from baseline, median",mITT,-23.37 min
same,"Sleep Period (Time in Bed), change from baseline, median difference (JZP-110 − Placebo)",mITT,−28.00 min
same,"Total Sleep Time, change from baseline, mean",mITT,-16.29 min
same,"Total Sleep Time, change from baseline, mean difference (JZP-110 − Placebo)",mITT,−37.92 min
same,"Total Sleep Time, change from baseline, median",mITT,-19.76 min
same,"Total Sleep Time, change from baseline, median difference (JZP-110 − Placebo)",mITT,−34.31 min
same,"WASO, change from baseline, mean",mITT,1.45 min
same,"WASO, change from baseline, mean difference (JZP-110 − Placebo)",mITT,3.91 min
same,"WASO, change from baseline, median",mITT,-0.69 min
same,"WASO, change from baseline, median difference (JZP-110 − Placebo)",mITT,1.07 min

# From patent publication US20260199282A1, “METHODS AND COMPOSITIONS FOR IMPROVING DRIVING PERFORMANCE” (priority 2022, published 2026)
